Starred links: 1 amine or outer side, 2 acyl side, 3 side chain; linkers in the order of their positions; H or OH if unused. Residues, ends and D or L forms follow the SMILES beside them. CO = O=C([*:1])[*:2]
Legend:
[1] = system: fillets of Pacific hake containing spots of jellied condition; assay: Appearance and organoleptic test of fillets broiled with salt (Example 2); details: number of 50 fillets, dipped 30 minutes in 10% sodium chloride with 0.001% antipain
[2] = system: yellowfin sole containing spots of jellied condition; assay: Appearance and mouth feel of dried flatfish with salt (Example 7); parameters: species or system North Pacific yellowfin sole
[3] = of 50 fish, same dip, control 2

Row | Compound | Appearance of a perfect fillet state, and texture of normal ([1]; control 0) | Muscles are softened, and partially depressed ([1]; control 7) | Appearance of a perfect fillet state, but slightly softened texture ([1]; control 12) | Muscles are wholly softened, and crumbled ([1]; control 31) | taste and flavour of broiled dried flatfish ([2]; Example 7 sample, broiled and eaten) | Appearance: Number of flatfish having perfect fish shape ([2]; of 50 fish, dipped 2 hours in 10% sodium chloride with 0.01% chymostatin, supersonic waves 18 KC 10 minutes, control 26) | Appearance: Number of flatfish consisting only of bones and skins [2, 3] | Mouth feel: Number of flatfish in the form of jelly or "nikogori" [2, 3] | Mouth feel: Number of flatfish having flesh like mashed potato ([2]; of 50 fish, same dip, control 17) | Appearance: Number of flatfish whose muscle was softened and partially depressed ([2]; of 50 fish, same dip, control 22)
1 | CC(C)[C@H](NC(=O)[C@H](CCCNC(=N)N)NC(=O)N[C@@H](Cc1ccccc1)C(=O)O)C(=O)N[C@H](C=O)CCCNC(=N)N [antipain] ({Phe-CO}-Arg-Val-Arg-aldehyde) | 39 | 2 | 8 | 1 |  |  |  |  |  | 
2 | chymostatin |  |  |  |  | the same taste and flavour as a conventional dried fish | 48 | 0 | 1 | 0 | 2

From patent US4284653A, “Process for handling and processing fish meat” (Nippon Suisan Kabushiki Kaisha, priority 1979, dated 1981)
